Results are given in words; binding and its absence hold for the method and conditions named. Binding seen in cells or lysates may run through a third protein. Here binding means that the protein was enriched with, or labelled near, the bait; the list need not be complete.
Biological target: Methionine adenosyltransferase α1 (MATα1), endogenous human (human (endogenous in human hepatocytes and liver)) (UniProt Q00266)
Test: affinity purification with mass spectrometry; normal human liver lysates (1000 μg), IP with anti-MATα1 antibody, on-bead trypsin/Lys-C digestion, DIA-MS

Chains of the proteins cited; added tags and fusions are not shown. Residues count along the entry.
UniProt Q00266: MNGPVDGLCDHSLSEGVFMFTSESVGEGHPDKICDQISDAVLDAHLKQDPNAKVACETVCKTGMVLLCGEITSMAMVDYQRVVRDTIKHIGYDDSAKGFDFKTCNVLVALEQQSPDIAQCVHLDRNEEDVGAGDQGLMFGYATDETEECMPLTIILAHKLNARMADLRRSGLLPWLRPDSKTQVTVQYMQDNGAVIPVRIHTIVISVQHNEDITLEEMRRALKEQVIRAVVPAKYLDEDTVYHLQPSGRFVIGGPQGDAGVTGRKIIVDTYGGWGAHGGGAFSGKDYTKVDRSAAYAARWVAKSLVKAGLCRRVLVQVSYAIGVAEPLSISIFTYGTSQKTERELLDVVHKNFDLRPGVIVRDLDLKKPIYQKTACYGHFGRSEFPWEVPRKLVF
UniProt P31040, residues 43-664: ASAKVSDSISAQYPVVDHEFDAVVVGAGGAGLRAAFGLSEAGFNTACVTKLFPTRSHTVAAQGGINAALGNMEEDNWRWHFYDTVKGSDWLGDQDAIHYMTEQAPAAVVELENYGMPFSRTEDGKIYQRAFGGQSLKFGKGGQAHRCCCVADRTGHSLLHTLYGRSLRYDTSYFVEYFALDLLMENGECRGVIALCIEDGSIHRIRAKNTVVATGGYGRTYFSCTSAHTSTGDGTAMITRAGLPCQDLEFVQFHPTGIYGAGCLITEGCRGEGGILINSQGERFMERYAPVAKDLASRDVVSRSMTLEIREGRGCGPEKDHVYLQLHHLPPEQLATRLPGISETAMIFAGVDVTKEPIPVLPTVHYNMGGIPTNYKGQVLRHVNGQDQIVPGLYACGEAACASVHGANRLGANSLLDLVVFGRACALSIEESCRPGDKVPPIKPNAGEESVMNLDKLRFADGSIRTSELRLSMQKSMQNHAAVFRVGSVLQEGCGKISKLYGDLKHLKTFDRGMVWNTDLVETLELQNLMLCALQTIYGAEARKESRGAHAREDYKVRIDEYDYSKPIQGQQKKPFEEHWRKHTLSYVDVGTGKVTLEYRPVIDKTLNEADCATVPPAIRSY

For “SDHα, endogenous human (from UniProt P31040 43-664)”, the binding was “binds”.

From paper PMC8799735
